Laboratory results as given in patent US20240076375A1.
Results are given in words; binding and its absence hold for the method and conditions named. Some entries that bind do so weakly or less than the wild type. For some assays here: Where a sequence is shown, tags or fusion partners need not be part of it.

T1: Tim-3 (form used in the assay not stated) (human) (UniProt Q8TDQ0)
T1 sequence: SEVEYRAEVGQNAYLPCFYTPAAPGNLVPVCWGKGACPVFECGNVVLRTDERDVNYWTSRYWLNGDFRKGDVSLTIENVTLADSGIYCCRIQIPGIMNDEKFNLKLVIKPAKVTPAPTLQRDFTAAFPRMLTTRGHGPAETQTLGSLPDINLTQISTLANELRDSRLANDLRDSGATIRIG

T2: Tim-3-his (human) (UniProt Q8TDQ0)
T2 sequence: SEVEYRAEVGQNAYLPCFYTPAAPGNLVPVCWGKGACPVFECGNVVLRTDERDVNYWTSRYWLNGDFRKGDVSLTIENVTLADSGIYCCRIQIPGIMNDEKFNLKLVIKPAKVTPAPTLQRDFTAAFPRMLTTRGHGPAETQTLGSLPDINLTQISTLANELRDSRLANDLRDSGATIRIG


Assays:
[1] = biological target: T1, Tim-3 (form used in the assay not stated) (human); assay: binding assays, not specified
[2] = biological target: T1, Tim-3 (form used in the assay not stated) (human); assay: SPR, Fab
Tim-3-his (human) = biological target: T2, Tim-3-his (human); assay: SPR (BIAcore T-200), antibody captured by anti-human Fab, Tim-3-his flowed

Binder | binding [1] | further results
hu425-1-2c (V62I) (antibody, human IgG1, kappa, V domains shown) VH: EVQLVESGGGLVQPGGSLRLSCAASGFTFSRYAMSWVRQAPGKGLEWVAAISSGGSLYFPDSVKGRFTISRDNAKNSCYLQMNSLRAEDTAVYYCARGREADGGYFDYWGQGTLVTVSS VL: DIVLTQSPATLSVSPGERATLSCRASESVEYYGTSLMQWYQQKPGQAPRLLIYAASNVESGIPARFSGSGSGTDFTLTISSLQSEDFAVYYCQQSMKVPLTFGGGTKVEIKR | binds | 
hu425-1-2d (D74E) (antibody, human IgG1, kappa, V domains shown) VH: EVQLVESGGGLVQPGGSLRLSCAASGFTFSRYAMSWVRQAPGKGLEWVAAISSGGSLYFPDSVKGRFTISRDNAKNSCYLQMNSLRAEDTAVYYCARGREADGGYFDYWGQGTLVTVSS VL: DIVLTQSPATLSVSPGERATLSCRASESVEYYGTSLMQWYQQKPGQAPRLLIYAASNVESGVPARFSGSGSGTEFTLTISSLQSEDFAVYYCQQSMKVPLTFGGGTKVEIKR | binds | 
hu425-2A-1 (F59Y in Vh) (antibody, human IgG1, kappa, V domains shown) VH: EVQLVESGGGLVQPGGSLRLSCAASGFTFSRYAMSWVRQAPGKGLEWVAAISSGGSLYYPDSVKGRFTISRDNAKNSCYLQMNSLRAEDTAVYYCARGREADGGYFDYWGQGTLVTVSS VL: DIVLTQSPATLSVSPGERATLSCRASESVEYYGTSLMQWYQQKPGQAPRLLIYAASNVESGVPARFSGSGSGTDFTLTISSLQSEDFAVYYCQQSMKVPLTFGGGTKVEIKR | binds | 
hu425-2C-1 (C78L in Vh) (antibody, human IgG1, kappa, V domains shown) VH: EVQLVESGGGLVQPGGSLRLSCAASGFTFSRYAMSWVRQAPGKGLEWVAAISSGGSLYFPDSVKGRFTISRDNAKNSLYLQMNSLRAEDTAVYYCARGREADGGYFDYWGQGTLVTVSS VL: DIVLTQSPATLSVSPGERATLSCRASESVEYYGTSLMQWYQQKPGQAPRLLIYAASNVESGVPARFSGSGSGTDFTLTISSLQSEDFAVYYCQQSMKVPLTFGGGTKVEIKR | binds | 
hu425-2-2 Fab (Fab, V domains shown) VH: EVQLVESGGGLVQPGGSLRLSCAASGFTFSRYAMSWVRQAPGKGLEWVAAISSGGSLYYPDSVKGRFTISRDNAKNTLYLQMNSLRAEDTAVYYCARGREADGGYFDYWGQGTLVTVSS VL: EIVMTQSPATLSVSPGERATLSCRASESVEYYGTSLMQWYQQKPGQAPRLLIYAASNVESGIPARFSGSGSGTEFTLTISSLQSEDFAVYYCQQSLKVPLTFGGGTKVEIK |  | binding [2]: binds
hu425-2-3b Fab (Fab, V domains shown) VH: EVQLVESGGGLVQPGGSLRLSCAASGFTFSRYAMSWVRQAPGKGLEWVAAISSGGSLYYPDSVKGRFTISRDNAKNTLYLQMNSLRAEDTAVYYCARGREADGGYFDYWGQGTLVTVSS VL: EIVLTQSPATLSVSPGERATLSCRASESVEYYGTSLMQWYQQKPGQAPRLLIYAASNVESGIPARFSGSGSGTEFTLTISSLQSEDFAVYYCQQSLKVPLTFGGGTKVEIK |  | binding [2]: binds
Hu425-2-3b in human IgG4 format with S228P mutation (antibody, V domains shown) VH: EVQLVESGGGLVQPGGSLRLSCAASGFTFSRYAMSWVRQAPGKGLEWVAAISSGGSLYYPDSVKGRFTISRDNAKNTLYLQMNSLRAEDTAVYYCARGREADGGYFDYWGQGTLVTVSS VL: EIVLTQSPATLSVSPGERATLSCRASESVEYYGTSLMQWYQQKPGQAPRLLIYAASNVESGIPARFSGSGSGTEFTLTISSLQSEDFAVYYCQQSLKVPLTFGGGTKVEIK |  | binding (Tim-3-his (human)): binds
Ab2 in human IgG4 format with S228P mutation (antibody, V domains shown) VH: EVQLLESGGGLVQPGGSLRLSCAAASGFTFSSYDMSWVRQAPGKGLDWVSTISGGGTYTYYQDSVKGRFTISRDNSKNTLYLQMNSLRAEDTAVYYCASMDYWGQGTTVTVSS VL: DIQMTQSPSSLSASVGDRVTITCRASQSIRRYLNWYHQKPGKAPKLLIYGASTLQSGVPSRFSGSGSGTDFTLTISSLQPEDFAVYYCQQSHSAPLTFGGGTKVEIKR |  | binding (Tim-3-his (human)): binds
